Measurements: patent publication US11534478B2, “Compositions and methods for treating cancer” (Biokine Therapeutics Ltd., priority 2015, dated 2022)
“Also recorded” adds a separate entry of the source. Part of at least one peptide drawing is inferred or uncertain, most often the ends. Where a SMILES comes first, the peptide text is derived from it. Bridges are numbered along the chain shown (N, C = ends). [ ]: non-standard residue; d: D form. The star is where a group is joined. 2Nal = N[C@@H](Cc1ccc2ccccc2c1)C(=O)O; Benzoyl(4-F) = O=C(c1ccc(F)cc1)*; Cit = NC(=O)NCCC[C@H](N)C(=O)O

Assays:
immune cells [1] = settings: in vivo; cited from earlier work
[2] = test system: CD34+ hematopoietic stem/progenitor cells (HSPC); settings: multiple myeloma patients, combined with G-CSF, single aphaeresis procedure; cited from earlier work
[3] = test system: myeloid leukemia, hematopoietic tumors and non-small cell lung cancer; settings: cited from earlier work
[4] = test system: long term repopulating stem cells; settings: mice, single injection; cited from earlier work
immune cells [5] = assay: In-vivo mobilization of immune cells by BL-8040; settings: in-vivo administration

N=C(N)NCCC[C@H](NC(=O)[C@@H]1CSSC[C@H](NC(=O)[C@H](Cc2ccc3ccccc3c2)NC(=O)[C@H](CCCNC(=N)N)NC(=O)[C@H](CCCNC(=N)N)NC(=O)c2ccc(F)cc2)C(=O)N[C@@H](Cc2ccc(O)cc2)C(=O)N[C@@H](CCCNC(N)=O)C(=O)N[C@@H](CCCCN)C(=O)N[C@H](CCCCN)C(=O)N2CCC[C@H]2C(=O)N[C@@H](Cc2ccc(O)cc2)C(=O)N[C@@H](CCCNC(=N)N)C(=O)N[C@@H](CCCNC(N)=O)C(=O)N1)C(N)=O [BL-8040, 4F-benzoyl-Arg-Arg-Nal-Cys-Tyr-Cit-Lys-DLys-Pro-Tyr-Arg-Cit-Cys-Arg-NH2] ({Benzoyl(4-F)}-RR[2Nal]CY[Cit]K[dK]PYR[Cit]CR-NH2; disulfide 4-13 (inferred))
mobilization of CD34+ hematopoietic stem/progenitor cells (HSPC) (immune cells [1]): induces mobilization of CD34+ hematopoietic stem/progenitor cells (HSPC) | collection of CD34+ hematopoietic stem/progenitor cells (HSPC) [2]: enabled the collection of high number of CD34+ hematopoietic stem/progenitor cells (HSPC) | toxicity against tumors [3]: toxic against several tumors | mobilization of long term repopulating stem cells [4]: mobilized long term repopulating stem cells sufficient for transplantation | mobilization of immune cells (immune cells [5]): induces rapid mobilization of a variety of immune cells; also recorded: induce rapid mobilization of hematopoietic stem/progenitor cells and mesenchymal stem cells as well as T cells, B cells, NK cells, NKT cells and ImDC to the peripheral blood
